According to PMC10762094:
No constants are given. Whether binding was seen depends on the method and setting. Binding seen in cells or lysates may run through a third protein. Here binding means that the protein was enriched with, or labelled near, the bait; the list need not be complete. For some of these results: Tags and fused reporters may be left off the sequences shown.

Sequences of proteins named here, by UniProt entry; tags and fusion partners are left off. A change or cut given only in a name is not applied to a line headed by its entry.
UniProt Q4X158: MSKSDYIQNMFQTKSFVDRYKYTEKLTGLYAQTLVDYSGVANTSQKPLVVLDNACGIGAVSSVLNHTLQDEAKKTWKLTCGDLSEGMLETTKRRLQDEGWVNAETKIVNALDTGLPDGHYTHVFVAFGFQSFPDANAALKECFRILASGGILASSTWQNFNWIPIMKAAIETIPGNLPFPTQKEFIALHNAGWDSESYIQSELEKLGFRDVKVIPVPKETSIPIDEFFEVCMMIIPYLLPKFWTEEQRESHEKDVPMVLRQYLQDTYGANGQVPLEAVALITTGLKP
UniProt Q4WW00: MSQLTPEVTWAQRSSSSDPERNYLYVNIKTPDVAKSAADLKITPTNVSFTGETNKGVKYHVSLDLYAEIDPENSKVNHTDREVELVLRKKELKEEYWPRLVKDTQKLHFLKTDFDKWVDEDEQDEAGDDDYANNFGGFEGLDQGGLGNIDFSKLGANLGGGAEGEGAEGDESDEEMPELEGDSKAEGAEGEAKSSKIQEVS
UniProt Q4WN17: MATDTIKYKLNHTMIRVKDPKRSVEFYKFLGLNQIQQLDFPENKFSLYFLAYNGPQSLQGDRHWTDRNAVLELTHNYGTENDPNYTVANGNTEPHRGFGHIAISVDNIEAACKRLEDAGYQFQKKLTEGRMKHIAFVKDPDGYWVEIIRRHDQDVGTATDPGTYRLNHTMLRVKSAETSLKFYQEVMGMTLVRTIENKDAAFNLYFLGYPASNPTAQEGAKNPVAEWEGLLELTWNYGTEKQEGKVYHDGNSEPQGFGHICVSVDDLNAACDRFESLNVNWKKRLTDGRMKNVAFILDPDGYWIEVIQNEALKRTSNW
UniProt Q4WI09: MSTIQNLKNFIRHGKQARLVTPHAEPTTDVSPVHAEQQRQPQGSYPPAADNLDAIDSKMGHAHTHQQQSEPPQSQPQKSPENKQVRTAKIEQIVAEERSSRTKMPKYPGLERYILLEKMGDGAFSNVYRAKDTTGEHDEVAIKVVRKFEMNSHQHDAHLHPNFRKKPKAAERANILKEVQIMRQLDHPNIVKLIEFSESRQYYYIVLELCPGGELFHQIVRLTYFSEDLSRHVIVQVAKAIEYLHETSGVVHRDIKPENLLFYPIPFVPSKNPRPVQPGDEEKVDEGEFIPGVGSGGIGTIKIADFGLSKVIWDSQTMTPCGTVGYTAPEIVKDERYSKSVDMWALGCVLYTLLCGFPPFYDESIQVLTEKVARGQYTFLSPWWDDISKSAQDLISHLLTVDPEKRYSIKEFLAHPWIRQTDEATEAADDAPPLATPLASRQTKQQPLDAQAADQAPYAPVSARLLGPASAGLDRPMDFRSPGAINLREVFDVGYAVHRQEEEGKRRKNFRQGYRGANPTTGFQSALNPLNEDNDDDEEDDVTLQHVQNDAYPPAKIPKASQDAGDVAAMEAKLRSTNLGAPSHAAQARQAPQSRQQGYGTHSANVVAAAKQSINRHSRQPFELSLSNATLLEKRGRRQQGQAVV
UniProt Q4X0F2: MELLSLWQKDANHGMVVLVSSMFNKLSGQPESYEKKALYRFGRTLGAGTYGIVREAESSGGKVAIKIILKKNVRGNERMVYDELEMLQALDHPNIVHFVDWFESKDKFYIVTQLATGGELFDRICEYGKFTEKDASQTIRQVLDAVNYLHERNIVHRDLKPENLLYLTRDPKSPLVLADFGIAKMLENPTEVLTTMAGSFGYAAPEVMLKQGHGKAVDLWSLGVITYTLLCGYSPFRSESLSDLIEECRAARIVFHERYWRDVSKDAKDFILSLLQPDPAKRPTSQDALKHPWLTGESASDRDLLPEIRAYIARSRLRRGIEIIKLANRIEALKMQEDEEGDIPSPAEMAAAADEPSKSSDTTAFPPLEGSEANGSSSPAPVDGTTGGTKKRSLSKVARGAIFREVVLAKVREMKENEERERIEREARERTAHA
UniProt Q4WY97: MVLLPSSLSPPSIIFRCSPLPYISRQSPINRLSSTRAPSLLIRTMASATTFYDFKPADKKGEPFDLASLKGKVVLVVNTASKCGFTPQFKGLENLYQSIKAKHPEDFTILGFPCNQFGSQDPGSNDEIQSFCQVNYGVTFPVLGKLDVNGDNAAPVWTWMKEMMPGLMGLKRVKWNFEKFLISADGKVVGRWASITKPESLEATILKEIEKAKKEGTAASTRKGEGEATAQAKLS
UniProt Q4WM81: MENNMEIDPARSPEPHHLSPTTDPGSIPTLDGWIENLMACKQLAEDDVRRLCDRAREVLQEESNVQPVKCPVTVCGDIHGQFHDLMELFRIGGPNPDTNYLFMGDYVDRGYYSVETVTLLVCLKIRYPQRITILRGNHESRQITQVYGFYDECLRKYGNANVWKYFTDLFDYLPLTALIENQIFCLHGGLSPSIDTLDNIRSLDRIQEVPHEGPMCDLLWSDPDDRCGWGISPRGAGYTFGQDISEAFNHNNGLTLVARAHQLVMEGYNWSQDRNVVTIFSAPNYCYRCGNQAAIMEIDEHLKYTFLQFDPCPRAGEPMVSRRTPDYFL
UniProt Q4WXF4: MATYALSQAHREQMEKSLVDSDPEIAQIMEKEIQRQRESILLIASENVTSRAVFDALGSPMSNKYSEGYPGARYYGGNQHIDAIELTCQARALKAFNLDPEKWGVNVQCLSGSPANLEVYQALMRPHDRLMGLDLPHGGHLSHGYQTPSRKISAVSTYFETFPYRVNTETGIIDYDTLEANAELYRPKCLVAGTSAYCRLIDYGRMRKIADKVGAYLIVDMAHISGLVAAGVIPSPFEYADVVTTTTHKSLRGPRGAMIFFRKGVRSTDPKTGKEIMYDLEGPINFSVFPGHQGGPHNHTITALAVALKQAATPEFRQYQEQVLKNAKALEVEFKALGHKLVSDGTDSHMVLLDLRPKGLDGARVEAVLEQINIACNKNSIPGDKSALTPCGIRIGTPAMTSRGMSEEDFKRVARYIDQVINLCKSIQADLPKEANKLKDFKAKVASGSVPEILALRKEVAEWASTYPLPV

T1: GliT:GFP (A. fumigatus) (UniProt E9RAH5)
T1 sequence: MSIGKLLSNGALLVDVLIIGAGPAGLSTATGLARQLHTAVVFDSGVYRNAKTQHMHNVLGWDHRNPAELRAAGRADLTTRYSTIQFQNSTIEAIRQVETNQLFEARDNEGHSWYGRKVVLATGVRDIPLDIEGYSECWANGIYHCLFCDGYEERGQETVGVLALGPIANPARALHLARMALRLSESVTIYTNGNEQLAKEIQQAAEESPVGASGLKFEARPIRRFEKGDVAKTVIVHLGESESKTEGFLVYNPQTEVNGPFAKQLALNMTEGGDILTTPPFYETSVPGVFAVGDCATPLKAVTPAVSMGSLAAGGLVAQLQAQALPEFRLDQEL

B1: PtcB, type 2 C protein phosphatase (PP2C) involved in dephosphorylation of SakA MAP kinase (protein, UniProt Q4WTH5 1-429)
chain: MRTCGTSSEGQDECCLYGLSAMQGWRISMEDAHAAVLDLQAKSTGGSEKPTDPDKRLAFFGVYDGHGGDKVALFAGENVHKIVAKQEAFAKGDIEQALKDGFLATDRAILEDPKYEEEVSGCTAAVSVISKNKIWVANAGDSRSVLGVKGRAKPLSFDHKPQNEGEKARISAAGGFVDFGRVNGNLALSRAIGDFEFKKSPELSPEQQIVTAYPDVTVHEVTDDDEFLVIACDGIWDCQSSQSVVEFVRRGIAAKQELYRICENMMDNCLASNSETGGVGCDNMTMIIIGLLNGKTKEEWYNQISERVANGDGPCAPPEYGKSEFRGPGIRNQFEETPDNYDLENDRSRGFSVRSGRIILLGDGTELIPEQNDEELFDQREENRDVTNHLQHDKAEETSTAANLSESPSSANKNSSGSGTEATEKSASS
B2: GliN, methyltransferase, encoded in the putative gliotoxin biosynthetic gene cluster (protein, UniProt Q4WMJ1 1-282)
chain: MTVLPDSENGYLLNYEDQEKRRMNMQHDLIKTYMGKLILAPLPFDQPNLRVLDSGTFNGLWLEDASTLLQSPTLVGTDVSPTAFPAKRPPNTEFHVQSISDPWPTEWRDSFDLVHQKLVIACVPPDEGRQALYRLIDLAKPGTGWVQFTEGSLEHLTPEQRKQYPVLARFQSLVAEMLPHFRWNPRPGKLVRQWLEEYGLQEVQEKVMEIPIGAGNPDPKLGEMAKQNMLEVVSNFRTAATRLPDGTGIRAEDFDPILRDIKVEFETVGGILRFNTVWGRRP
B3: GliG, glutathione S-transferase encoded in the gliotoxin biosynthetic gene cluster (protein, UniProt A4GYZ0 1-240)
chain: MSERPSDLVVNRLVLFVVKGTATSTHNTVKPLILLEELGVPHDIYVVEKVSAPWFSEINPHKMVPAILDRSPDGRDTLRAWESTSTLMYIADAYDKDGTLGGRNVQERSEINNWLTLHTAALGPTAKYWLYFYKLHPEKLPKTIEKLRSNITVQYDILERRLNEPGQQYLALKDRPTIADIATLPFAMKSTAELFGLEFEKWPKLQEWSVRMGEREAVKRAWQRVAGFGHGEKEYGMLEA

Tests used:
[1] = target: T1, GliT:GFP (A. fumigatus); assay: affinity purification with mass spectrometry
[2] = target: GtmA:GFP (A. fumigatus) (UniProt Q4X158); assay: affinity purification with mass spectrometry

Molecule | binding [1] | binding [2]
Wos2, Hsp90 binding co-chaperone (from UniProt Q4WW00) | binds | 
Lactoylglutathione lyase (Afu6g07940) (from UniProt Q4WN17) | binds | 
Calcium/calmodulin-dependent protein kinase (Afu2g03490) (from UniProt Q4WI09) | binds | binds
Calcium/calmodulin-dependent protein kinase (Afu2g13680) (from UniProt Q4X0F2) |  | binds
Glutathione peroxidase; peroxiredoxin (Afu3g12270) (from UniProt Q4WY97) | binds | 
PphB, protein serine/threonine phosphatase activity (from UniProt Q4WM81) |  | binds
Serine hydroxymethyltransferase (Afu3g09320) (from UniProt Q4WXF4) | binds | binds
B1 |  | binds
B2 | binds | binds
B3 |  | binds
